Measurements taken from PMC7175249.
No constants are given. Whether binding was seen depends on the method and setting. In cells and extracts the contact can be indirect. Some results given as binding are weak or reduced against the parent protein; the word gives no strength.

The chains behind the UniProt entries cited, without tags or fusion partners.
UniProt P40337: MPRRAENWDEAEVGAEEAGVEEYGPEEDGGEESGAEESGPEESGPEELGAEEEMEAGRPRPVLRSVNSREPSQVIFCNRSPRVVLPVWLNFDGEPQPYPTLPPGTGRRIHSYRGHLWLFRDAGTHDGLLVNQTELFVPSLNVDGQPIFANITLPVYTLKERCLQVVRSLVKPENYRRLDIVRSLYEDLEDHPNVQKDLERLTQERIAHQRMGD

Target: Endogenous pVHL (human (endogenous in MHCC-LM3)) (UniProt P40337)
Assay: co-IP; endogenous proteins, MHCC-LM3 cells with NC or OTUD6B knockdown, treated with MG132 for 8 h, immunoprecipitation with control IgG or anti-pVHL antibodies

binding: binds
B1: Trp Asp repeat and suppressors of cytokine signaling box-containing protein 1 (WSB1) (enzyme, UniProt Q9Y6I7 1-421)
chain: MASFPPRVNEKEIVRLRTIGELLAPAAPFDKKCGRENWTVAFAPDGSYFAWSQGHRTVKLVPWSQCLQNFLLHGTKNVTNSSSLRLPRQNSDGGQKNKPREHIIDCGDIVWSLAFGSSVPEKQSRCVNIEWHRFRFGQDQLLLATGLNNGRIKIWDVYTGKLLLNLVDHTEVVRDLTFAPDGSLILVSASRDKTLRVWDLKDDGNMMKVLRGHQNWVYSCAFSPDSSMLCSVGASKAVFLWNMDKYTMIRKLEGHHHDVVACDFSPDGALLATASYDTRVYIWDPHNGDILMEFGHLFPPPTPIFAGGANDRWVRSVSFSHDGLHVASLADDKMVRFWRIDEDYPVQVAPLSNGLCCAFSTDGSVLAAGTHDGSVYFWATPRQVPSLQHLCRMSIRRVMPTQEVQELPIPSKLLEFLSYRI
